The values below come from patent US9409946 (dated 2016).

The nature of series [1]: general procedure: solution-phase peptide synthesis; EDC/HOOBt; HBTU/DIPEA; EDC/HOBt.
Series [2] is described as follows: solution-phase peptide synthesis; EDC/HOOBt; HBTU/DIPEA; EDC/HOBt. The following applies: whole synthesis, HCl salt (5HCl).

Regarding 2HCl.H-Trp-Arg-Arg-Lys(Boc)-NH2, the step yield in series [1] (late stage modification step, based on the titration, 2HCl salt) was 95%.
On to “2HCl.H-Trp-Trp-Pro-Trp-Arg-Arg-Lys(Boc)-NH2”, for which the step yield in series [1] (late stage modification step, based on titration, 2HCl salt) is on record as 82%.
Take “3HCl.Boc-Ile-Leu-Arg-Trp-Pro-Trp-Trp-Pro-Trp-Arg-Arg-Lys(Boc)-NH2”: the step yield in series [1] (coupling step, based on NMR content, 3HCl salt) was 88%.
On to “3HCl.H-Arg-Trp-Pro-Trp-Trp-Pro-Trp-Arg-Arg-Lys(Boc)-NH2”, for which the step yield in series [1] (late stage modification step, based on NMR content measurement, 3HCl salt) was determined as 93%.
Take “5HCl.H-Ile-Leu-Arg-Trp-Pro-Trp-Trp-Pro-Trp-Arg-Arg-Lys-NH2”: the “final purity (method not given)” value in series [2] is “above 98%”.
For “Z-Arg-Trp-Pro-Trp-Trp-Pro-Trp-Arg-Arg-Lys(Boc)-NH2.3TPB”, the step yield in series [1] (coupling step, based on NMR content, 3TPB salt) was 87%.
Consider Z-Trp-Arg-Arg-Lys(Boc)-NH2.2TPB, for which the step yield in series [1] (coupling step, based on titration content, 2TPB salt) is given as 83%.
As for “Z-Trp-Trp-Pro-Trp-Arg-Arg-Lys(Boc)-NH2.2TPB”, in series [1] (coupling step, based on NMR content, 2TPB salt), the step yield came out at 98%.
